The series can be described thus: general procedure: Fmoc solid-phase peptide synthesis; Rink amide resin; HBTU, HOBt, DIEA. The following applies: whole synthesis; for crude HPLC purity / final HPLC purity: analytical RP-HPLC.

The values below come from paper PMC3819306 (PLoS ONE, 2013).

Some peptides are written in HELM: one residue between dots, names in brackets for other building blocks, links after the first $.

In the case of PEPTIDE1{P.L.H.S.[pT].M.[am]}$$$$V2.0, under “scale 0.048 mmol”, the “crude HPLC purity” value is 63%, the “final HPLC purity” value is reported as 98%, the isolated mass is 7.2 mg and the isolated yield is recorded as 20%.

As for “PEPTIDE1{[BnPro].L.H.S.[pT].M.[am]}$$$$V2.0”, for the setting “scale 0.062 mmol”, the “crude HPLC purity” value was determined as 79%, the “final HPLC purity” value is 98%, the isolated mass is given as 15.4 mg and the isolated yield turned out to be 25%.

For “PEPTIDE1{[ChxAc].P.L.H.S.[pT].M.[am]}$$$$V2.0”, for the setting “scale 0.041 mmol”, the “crude HPLC purity” value is listed as 75%, the “final HPLC purity” value is 98%, the isolated mass was found to be 8.6 mg and the isolated yield was found to be 24%.

Regarding “PEPTIDE1{[ChxMePro].L.H.S.[pT].M.[am]}$$$$V2.0”, for the setting “scale 0.061 mmol”, the “crude HPLC purity” value is 64%, the “final HPLC purity” value is on record as above 98%, the isolated mass turned out to be 10.6 mg and the isolated yield came out at 20%.

“PEPTIDE1{[ClPipPro].L.H.S.[pT].M.[am]}$$$$V2.0”: under “scale 0.061 mmol”, the “crude HPLC purity” value turned out to be 74%, the “final HPLC purity” value is listed as 98%, the isolated mass was determined as 13.2 mg and the isolated yield was determined as 23%.

“PEPTIDE1{[TMBnPro].L.H.S.[pT].M.[am]}$$$$V2.0”: where the note is “scale 0.061 mmol”, the “crude HPLC purity” value was 74%, the “final HPLC purity” value was above 98%, the isolated mass turned out to be 13.4 mg and the isolated yield amounted to 23%.

“PEPTIDE1{[TMBnPro].L.H.S.[pT].[am]}$$$$V2.0”: where the note is “scale 0.048 mmol”, the “crude HPLC purity” value was determined as 79%, the “final HPLC purity” value is on record as 98%, the isolated mass worked out at 9.7 mg and the isolated yield came out at 25%.
